According to US20200270352A1:
No constants are given. Whether binding was seen depends on the method and setting. Some binding calls cover weakened binding; strength is not graded here.

The chains behind the UniProt entries cited, without tags or fusion partners. Where a name states a change or a piece, a line headed by the entry shows the natural chain unless it says otherwise.
UniProt P08069: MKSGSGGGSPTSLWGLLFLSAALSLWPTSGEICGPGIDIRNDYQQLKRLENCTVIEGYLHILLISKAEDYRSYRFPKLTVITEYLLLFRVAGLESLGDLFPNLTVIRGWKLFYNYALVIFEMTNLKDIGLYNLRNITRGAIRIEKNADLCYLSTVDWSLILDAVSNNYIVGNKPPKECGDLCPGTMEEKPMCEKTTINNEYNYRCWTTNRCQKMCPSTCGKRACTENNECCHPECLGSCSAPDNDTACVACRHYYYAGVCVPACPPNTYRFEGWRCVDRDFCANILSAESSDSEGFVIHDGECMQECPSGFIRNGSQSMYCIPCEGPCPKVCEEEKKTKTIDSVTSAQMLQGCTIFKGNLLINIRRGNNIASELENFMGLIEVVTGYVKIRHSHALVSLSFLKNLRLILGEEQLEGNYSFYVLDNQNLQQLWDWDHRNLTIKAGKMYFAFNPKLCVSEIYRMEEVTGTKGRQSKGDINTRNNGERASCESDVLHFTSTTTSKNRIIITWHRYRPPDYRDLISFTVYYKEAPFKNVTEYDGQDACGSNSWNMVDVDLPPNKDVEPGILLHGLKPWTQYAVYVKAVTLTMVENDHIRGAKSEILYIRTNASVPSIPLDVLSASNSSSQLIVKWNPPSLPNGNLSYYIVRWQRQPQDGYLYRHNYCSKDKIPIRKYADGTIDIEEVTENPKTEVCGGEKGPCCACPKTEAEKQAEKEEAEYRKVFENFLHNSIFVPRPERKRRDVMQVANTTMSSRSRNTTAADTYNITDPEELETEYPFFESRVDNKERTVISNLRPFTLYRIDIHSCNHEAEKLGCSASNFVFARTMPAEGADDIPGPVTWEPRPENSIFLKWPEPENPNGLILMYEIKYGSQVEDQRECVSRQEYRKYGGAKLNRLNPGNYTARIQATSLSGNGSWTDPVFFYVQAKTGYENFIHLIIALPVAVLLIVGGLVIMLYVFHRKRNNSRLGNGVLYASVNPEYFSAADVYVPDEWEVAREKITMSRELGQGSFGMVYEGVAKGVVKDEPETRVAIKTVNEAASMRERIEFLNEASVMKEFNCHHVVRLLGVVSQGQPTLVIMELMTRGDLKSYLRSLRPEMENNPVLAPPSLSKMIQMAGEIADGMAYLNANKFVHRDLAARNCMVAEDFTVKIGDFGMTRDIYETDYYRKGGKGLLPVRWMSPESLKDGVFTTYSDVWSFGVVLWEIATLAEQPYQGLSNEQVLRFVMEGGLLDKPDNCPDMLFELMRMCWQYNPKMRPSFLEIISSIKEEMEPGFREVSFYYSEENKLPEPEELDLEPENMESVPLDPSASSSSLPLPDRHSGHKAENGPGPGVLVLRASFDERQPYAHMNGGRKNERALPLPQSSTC

Assays:
[1] = target: human IGF-1R, native, on cells (MCF-7, hIGF-1R transfected cells, primary normal human cells) (human) (UniProt P08069); assay: FACS titration on MCF-7
[2] = target: human IGF-1R, native, on cells (MCF-7, hIGF-1R transfected cells, primary normal human cells) (human) (UniProt P08069); assay: FACS on MCF-7

B1: humanized antibody hz208F2 VH3/VL3 (hz208F2 H026/L024) (antibody, human IgG1, kappa, V domains shown)
VH: QVQLVQSGAEVKKPGASVKMSCKASGYTFTSYYIYWVKQAPGQGLEWLGWIWPGDGSTKYNEKFQGRVTLTADKSSNTAYMFLSSLRSEDTAVYFCASPMITPNYAMDYWGQGTLVTVSS
VL: DIQMTQSPSSLSASVGDRVTISCRASQDISKYLNWYQQKPGKAPKLLIYYTSRLHSGVPSRFSGRGSGTDYSLTISNLQPEDFATYFCQQGSTLPYTFGGGTKVEIKR
binding [1]: binds
binding [2]: binds
